pIC50: −log10 of the molar value. The match of structure and compound is tentative.
Target: AeKir1 (Aedes aegypti, UniProt L0EQS9)
Experiment: Tl+ flux assay in T-REx-HEK293-AeKir1 cells
Assay type: cell-based
Details: Table S3, left-hand sulfonamide SAR; 11-point CRCs on AeKir1 in Tl+ flux, triplicate on two separate days
Protocol: Tl^+ flux assays were performed essentially as described previously, [18], [19]. Briefly, stably transfected T-Rex-HEK-293 cells expressing AeKir1 channels were cultured overnight in 384-well plates (20,000 cells/20 µL/well black-walled, clear-bottomed BD PureCoat amine-coated plates (BD, Bedford, MA) with a plating media containing DMEM, 10% dialyzed FBS and 1 µg/mL tetracycline. The next day, the cell culture medium was replaced with a dye-loading solution containing assay buffer (Hanks Balanced Salt Solution with 20 mM HEPES, pH 7.3), 0.01% (w/v) Pluronic F-127 (Life Technologies, Carlsbad, CA), and 1.2 µM of the thallium-sensitive dye Thallos-AM (TEFlabs, Austin, TX). Following 1 hr incubation at room temperature, the dye-loading solution was washed from the plates and replaced with 20 µL/well of assay buffer. […] Tl^+ flux data were analyzed as previously described, [21], [22] using a combination of Excel (Microsoft Corp, Redmond, WA) with XLfit add-in (IDBS, Guildford, Surrey, UK) and OriginPro (OriginLab, Northampton, MA) software. […] The slope of the fluorescence increase beginning 5 s after Tl^+ addition and ending 15 s after Tl^+ addition was calculated. […] Half-inhibition concentration (IC50) values were calculated from fits using a four parameter logistic equation.

Amino acid sequences for entries named in this document (tags omitted). Residues count along the entry.
UniProt L0EQS9, 1-486: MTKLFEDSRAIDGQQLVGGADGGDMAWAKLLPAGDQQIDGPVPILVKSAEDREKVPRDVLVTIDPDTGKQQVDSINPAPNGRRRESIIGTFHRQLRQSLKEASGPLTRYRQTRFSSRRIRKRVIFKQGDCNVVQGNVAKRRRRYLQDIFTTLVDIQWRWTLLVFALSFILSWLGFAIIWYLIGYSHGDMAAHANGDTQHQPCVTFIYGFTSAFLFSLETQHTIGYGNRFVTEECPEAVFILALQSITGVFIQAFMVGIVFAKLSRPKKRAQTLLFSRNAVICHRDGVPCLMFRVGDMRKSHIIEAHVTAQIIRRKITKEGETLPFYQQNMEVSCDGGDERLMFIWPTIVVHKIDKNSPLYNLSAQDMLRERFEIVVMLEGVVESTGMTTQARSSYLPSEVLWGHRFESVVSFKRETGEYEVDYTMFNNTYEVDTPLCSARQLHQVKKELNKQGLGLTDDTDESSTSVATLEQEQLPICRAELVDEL

Question: How did the pIC50 turn out when `CCC(=O)N1c2ccc(S(=O)(=O)Nc3cccc(OC)c3)cc2CC1C` (stereo not shown) [VU625, N-(3-methoxyphenyl)-2-methyl-1-propionylindoline-5-sulfonamide] was run?
Answer: 6.47

— PMC4222822, “Discovery and Characterization of a Potent and Selective Inhibitor of Aedes aegypti Inward Rectifier Potassium Channels” (PLoS ONE, 2014)
